These are yes or no findings as the source states them, for the method shown. Binding seen in cells or lysates may run through a third protein.
Molecular target: ß-catenin (endogenous, HCT116) (human (endogenous in HCT116)) (UniProt P35222)
Assay: co-IP; endogenous proteins in HCT116 cells; β-Cat and TCF7L2 IPs as positive controls; western blotting

Sequences of proteins named here, by UniProt entry; tags and fusion partners are left off.
UniProt P35222: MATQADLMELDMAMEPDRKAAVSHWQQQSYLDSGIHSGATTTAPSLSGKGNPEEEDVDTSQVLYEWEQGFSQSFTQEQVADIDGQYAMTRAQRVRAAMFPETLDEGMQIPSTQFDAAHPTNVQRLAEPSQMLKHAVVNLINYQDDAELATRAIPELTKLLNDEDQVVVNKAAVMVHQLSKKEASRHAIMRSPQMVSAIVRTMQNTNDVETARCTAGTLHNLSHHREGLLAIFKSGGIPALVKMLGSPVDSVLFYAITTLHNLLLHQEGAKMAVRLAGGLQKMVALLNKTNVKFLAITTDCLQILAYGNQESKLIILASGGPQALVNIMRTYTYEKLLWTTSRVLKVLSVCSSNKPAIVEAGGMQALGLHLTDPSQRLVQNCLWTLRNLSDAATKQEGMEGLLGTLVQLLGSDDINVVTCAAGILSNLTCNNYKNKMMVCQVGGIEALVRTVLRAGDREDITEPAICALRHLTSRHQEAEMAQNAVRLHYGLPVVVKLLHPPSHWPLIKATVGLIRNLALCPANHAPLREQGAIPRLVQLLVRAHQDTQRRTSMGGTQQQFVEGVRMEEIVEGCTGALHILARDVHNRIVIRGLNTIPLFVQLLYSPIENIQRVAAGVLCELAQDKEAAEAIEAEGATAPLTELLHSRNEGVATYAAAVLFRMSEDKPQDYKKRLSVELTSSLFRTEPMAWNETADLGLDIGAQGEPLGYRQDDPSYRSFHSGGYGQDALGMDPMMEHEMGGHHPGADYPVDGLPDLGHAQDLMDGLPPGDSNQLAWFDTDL

binding: no binding
Substance: PAX1 (endogenous, HCT116) (from UniProt P15863-1 1-534)

Reference: article PMC11046865
